Some of the results follow.
Assays:
Assay in all cases: log2 fold change, soluble protein after heating vs DMSO (PISA); higher = thermal stabilisation; K562 lysate, 10 uM; active = over 0.2 and 3.5 SD of the protein, either way, in both replicates (recomputed)
erlotinib = compound: C#Cc1cccc(Nc2ncnc3cc(OCCOC)c(OCCOC)cc23)c1 [erlotinib]
How it was run: (§1)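 Dounce homogenisation of K562 pellets in PBS pH 7.4 with 1 mM MgCl2 produced a crude extract, used at 1 mg/mL protein. Exposure to 10 μM compound lasted 30 min, and aliquots were then heated for 3 min across 48°C-58°C, pooled and brought to 0.5% NP-40 at 4°C. The supernatant after 21,000xg for 90 min was quantified by TMTpro 16plex LC-MS/MS with channel sums equalised. Duplicate values are given as log-two fold change in thermal stability relative to solvent controls.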

Amino acid sequences for entries named in this document (tags omitted). A change or cut given only in a name is not applied to a line headed by its entry.
UniProt Q14669: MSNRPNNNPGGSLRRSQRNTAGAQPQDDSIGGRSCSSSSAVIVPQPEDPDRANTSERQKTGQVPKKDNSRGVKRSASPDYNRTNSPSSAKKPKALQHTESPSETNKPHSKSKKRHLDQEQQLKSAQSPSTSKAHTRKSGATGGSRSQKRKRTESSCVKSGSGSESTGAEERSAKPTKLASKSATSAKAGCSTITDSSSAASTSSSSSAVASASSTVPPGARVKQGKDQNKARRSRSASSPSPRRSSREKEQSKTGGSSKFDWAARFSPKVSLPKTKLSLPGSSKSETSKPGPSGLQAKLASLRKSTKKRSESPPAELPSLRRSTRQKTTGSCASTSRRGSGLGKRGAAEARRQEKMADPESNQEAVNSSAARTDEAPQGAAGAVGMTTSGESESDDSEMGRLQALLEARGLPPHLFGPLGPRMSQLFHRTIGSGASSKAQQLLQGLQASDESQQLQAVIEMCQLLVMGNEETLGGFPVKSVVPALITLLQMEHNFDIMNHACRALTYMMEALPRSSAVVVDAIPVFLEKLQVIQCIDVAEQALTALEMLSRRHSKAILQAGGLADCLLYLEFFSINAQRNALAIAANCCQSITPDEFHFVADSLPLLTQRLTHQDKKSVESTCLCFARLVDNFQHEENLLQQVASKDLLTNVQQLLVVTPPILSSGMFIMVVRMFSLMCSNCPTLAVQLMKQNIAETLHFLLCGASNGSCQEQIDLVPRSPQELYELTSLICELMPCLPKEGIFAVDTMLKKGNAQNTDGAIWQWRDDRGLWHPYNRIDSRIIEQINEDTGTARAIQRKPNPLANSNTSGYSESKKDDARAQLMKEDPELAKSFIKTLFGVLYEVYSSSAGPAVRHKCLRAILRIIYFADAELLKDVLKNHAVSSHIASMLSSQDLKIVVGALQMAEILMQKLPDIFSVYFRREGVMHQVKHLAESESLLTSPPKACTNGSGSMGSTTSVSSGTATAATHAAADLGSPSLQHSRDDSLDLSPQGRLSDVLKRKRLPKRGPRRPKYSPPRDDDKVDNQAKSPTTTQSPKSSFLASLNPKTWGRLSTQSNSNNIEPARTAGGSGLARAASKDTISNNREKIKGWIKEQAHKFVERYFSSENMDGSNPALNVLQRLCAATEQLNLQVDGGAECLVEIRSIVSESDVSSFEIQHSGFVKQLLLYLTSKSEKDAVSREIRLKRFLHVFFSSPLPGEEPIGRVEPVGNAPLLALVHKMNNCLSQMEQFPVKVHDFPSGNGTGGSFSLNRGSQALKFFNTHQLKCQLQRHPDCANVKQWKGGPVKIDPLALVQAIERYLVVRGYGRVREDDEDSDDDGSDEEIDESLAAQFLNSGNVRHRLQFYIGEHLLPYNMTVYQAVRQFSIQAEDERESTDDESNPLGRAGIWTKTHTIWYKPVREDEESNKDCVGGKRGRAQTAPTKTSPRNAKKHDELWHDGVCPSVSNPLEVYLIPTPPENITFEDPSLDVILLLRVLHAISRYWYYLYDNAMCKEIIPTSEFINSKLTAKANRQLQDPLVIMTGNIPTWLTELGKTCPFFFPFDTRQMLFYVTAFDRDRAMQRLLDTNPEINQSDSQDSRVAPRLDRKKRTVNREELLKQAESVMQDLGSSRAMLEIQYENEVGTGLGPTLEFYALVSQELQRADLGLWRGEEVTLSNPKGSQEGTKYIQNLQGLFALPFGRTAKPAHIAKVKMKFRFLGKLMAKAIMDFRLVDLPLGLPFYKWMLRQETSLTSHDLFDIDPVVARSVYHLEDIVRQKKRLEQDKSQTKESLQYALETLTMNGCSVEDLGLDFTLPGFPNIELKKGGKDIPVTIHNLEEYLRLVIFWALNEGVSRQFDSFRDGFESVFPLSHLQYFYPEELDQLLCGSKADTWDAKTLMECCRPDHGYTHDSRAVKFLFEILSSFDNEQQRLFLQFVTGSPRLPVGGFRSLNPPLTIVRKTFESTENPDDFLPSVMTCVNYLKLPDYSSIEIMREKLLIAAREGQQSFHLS
UniProt Q9UJK0: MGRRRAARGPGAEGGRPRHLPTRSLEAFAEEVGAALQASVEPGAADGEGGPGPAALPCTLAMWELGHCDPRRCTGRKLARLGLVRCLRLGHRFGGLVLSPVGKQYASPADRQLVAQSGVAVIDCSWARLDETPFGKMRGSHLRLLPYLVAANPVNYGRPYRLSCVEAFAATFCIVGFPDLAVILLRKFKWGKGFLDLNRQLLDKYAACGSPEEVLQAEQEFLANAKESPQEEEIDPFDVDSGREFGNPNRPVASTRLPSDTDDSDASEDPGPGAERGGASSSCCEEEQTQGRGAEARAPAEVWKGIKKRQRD
UniProt Q13114: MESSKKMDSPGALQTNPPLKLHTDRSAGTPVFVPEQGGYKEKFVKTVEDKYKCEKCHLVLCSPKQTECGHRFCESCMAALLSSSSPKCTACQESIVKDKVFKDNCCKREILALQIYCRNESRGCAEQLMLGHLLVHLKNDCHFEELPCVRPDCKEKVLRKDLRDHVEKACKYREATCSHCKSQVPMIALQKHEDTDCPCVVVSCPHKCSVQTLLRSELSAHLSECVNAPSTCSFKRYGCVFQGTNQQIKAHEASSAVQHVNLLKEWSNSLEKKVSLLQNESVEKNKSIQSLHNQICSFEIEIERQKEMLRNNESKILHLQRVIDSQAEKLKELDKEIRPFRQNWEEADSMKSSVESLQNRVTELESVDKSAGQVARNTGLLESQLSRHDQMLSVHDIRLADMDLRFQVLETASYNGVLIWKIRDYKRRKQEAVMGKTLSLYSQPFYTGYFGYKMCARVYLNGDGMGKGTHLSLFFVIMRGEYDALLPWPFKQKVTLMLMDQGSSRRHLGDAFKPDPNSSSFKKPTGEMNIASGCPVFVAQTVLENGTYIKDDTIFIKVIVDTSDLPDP
UniProt Q9Y5U2: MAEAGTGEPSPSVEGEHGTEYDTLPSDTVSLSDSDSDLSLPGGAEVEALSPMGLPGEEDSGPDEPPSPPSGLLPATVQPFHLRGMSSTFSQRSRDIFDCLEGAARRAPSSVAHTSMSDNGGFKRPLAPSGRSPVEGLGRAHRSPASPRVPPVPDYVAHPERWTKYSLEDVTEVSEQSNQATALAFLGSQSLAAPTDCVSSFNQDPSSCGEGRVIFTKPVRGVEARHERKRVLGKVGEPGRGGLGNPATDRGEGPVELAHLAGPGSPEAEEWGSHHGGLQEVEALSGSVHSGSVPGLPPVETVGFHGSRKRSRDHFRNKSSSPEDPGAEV
UniProt Q9Y4K3: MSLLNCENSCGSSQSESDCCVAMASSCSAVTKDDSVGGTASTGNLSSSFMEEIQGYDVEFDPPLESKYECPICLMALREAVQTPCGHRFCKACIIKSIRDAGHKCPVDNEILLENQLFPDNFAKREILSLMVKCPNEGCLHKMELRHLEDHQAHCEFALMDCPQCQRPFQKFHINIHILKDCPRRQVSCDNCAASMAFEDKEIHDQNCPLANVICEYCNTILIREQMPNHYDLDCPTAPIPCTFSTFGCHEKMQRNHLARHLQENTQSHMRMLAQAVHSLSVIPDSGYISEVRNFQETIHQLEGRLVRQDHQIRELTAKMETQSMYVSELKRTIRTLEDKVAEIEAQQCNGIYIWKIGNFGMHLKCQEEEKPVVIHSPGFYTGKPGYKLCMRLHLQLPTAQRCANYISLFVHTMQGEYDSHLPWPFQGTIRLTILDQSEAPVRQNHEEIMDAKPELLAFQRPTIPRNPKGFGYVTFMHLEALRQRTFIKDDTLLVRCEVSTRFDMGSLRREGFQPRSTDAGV
UniProt Q15631: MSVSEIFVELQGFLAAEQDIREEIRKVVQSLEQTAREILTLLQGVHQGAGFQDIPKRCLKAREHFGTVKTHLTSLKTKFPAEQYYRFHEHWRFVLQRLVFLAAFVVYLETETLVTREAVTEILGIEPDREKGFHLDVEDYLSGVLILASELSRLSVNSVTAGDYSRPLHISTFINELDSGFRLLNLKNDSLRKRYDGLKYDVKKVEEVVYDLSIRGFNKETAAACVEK
UniProt Q7L0Y3: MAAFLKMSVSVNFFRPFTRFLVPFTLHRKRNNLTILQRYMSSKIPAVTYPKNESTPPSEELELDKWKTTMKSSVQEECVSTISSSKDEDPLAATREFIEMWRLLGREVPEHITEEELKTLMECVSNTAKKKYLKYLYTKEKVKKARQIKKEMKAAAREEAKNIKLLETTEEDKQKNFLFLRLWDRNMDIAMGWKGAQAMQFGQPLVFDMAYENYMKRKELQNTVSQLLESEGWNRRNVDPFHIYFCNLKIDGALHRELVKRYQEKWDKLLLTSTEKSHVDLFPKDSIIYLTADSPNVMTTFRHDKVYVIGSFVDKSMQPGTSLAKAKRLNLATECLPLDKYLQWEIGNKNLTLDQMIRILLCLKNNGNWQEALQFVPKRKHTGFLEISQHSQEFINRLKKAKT
UniProt Q6NXR4: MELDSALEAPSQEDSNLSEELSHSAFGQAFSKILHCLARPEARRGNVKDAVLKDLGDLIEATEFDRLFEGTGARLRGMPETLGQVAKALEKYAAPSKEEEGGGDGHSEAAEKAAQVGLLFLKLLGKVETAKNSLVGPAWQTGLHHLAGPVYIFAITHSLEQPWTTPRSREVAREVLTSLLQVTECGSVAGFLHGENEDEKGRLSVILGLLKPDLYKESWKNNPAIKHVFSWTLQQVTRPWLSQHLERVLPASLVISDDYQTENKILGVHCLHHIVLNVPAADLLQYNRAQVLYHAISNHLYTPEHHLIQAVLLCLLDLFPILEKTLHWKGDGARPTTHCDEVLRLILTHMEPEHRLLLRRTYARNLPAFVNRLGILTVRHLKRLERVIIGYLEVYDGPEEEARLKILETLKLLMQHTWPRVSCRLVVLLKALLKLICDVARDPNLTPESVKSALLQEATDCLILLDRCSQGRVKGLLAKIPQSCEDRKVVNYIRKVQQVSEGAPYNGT
UniProt Q13263: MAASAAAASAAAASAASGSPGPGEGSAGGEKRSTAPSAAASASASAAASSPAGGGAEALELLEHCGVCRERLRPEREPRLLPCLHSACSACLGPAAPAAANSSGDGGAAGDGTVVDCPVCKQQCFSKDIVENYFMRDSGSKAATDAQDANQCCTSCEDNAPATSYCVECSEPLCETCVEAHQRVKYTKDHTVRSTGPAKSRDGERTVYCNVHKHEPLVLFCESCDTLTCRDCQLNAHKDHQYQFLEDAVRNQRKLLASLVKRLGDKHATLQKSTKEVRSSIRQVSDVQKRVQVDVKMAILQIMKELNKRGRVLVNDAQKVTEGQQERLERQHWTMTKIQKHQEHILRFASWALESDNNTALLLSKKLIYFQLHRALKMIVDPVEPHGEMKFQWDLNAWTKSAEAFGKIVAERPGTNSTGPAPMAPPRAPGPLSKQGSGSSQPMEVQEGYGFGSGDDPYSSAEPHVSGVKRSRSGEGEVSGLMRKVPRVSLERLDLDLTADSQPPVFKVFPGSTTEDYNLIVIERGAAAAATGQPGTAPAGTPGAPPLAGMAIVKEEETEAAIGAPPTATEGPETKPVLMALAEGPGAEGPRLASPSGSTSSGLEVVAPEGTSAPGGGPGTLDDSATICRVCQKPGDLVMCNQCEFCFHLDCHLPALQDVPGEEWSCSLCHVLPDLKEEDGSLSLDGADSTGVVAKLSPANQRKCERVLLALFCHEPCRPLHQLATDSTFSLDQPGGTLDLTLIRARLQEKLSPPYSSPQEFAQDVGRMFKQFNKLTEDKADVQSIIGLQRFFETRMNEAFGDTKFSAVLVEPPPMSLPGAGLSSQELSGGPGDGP
UniProt Q86TV6: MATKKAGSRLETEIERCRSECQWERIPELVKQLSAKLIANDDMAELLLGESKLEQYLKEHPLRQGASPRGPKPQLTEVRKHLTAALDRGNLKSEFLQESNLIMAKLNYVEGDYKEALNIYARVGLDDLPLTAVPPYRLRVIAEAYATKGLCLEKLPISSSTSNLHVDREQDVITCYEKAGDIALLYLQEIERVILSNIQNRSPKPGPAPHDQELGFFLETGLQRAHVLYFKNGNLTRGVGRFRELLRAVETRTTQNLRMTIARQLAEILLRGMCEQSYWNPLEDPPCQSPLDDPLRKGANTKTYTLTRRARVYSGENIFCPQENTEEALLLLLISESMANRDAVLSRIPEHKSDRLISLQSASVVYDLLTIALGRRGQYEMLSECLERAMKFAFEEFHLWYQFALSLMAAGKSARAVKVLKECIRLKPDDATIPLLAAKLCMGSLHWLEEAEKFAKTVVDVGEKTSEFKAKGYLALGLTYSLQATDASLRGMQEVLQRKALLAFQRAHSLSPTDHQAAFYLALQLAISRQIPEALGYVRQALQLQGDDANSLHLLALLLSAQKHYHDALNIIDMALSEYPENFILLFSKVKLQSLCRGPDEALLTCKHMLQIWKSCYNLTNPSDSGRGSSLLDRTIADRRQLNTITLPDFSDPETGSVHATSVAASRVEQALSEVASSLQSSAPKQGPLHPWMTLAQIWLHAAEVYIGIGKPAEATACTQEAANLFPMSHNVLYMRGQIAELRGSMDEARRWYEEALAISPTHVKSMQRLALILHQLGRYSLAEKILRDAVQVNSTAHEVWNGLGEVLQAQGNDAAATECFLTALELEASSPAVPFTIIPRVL

[1] = compound: C/C(=N\NC(=O)C1=CC(=CC=C1)S(=O)(=O)N2CCOCC2)/C3=C(C=CC(=C3)Cl)O
How it was run: as §1

[2] = compound: C1=CC(=CC=C1C2=NC3=C(N2)C=C(C=C3)C(=O)N)OC4=CC=C(C=C4)Cl
How it was run: as §1

[3] = compound: C1=CC2=C(C=CC(=C2)/C=C\3/C(=O)NC(=NCC4=CC=CS4)S3)N=C1
How it was run: as §1

[4] = compound: C1=CC2=NC=CN=C2C=C1/C=C/3\C(=O)NC(=O)S3
How it was run: as §1

[5] = compound: C1=CC=C(C=C1)C2=NC(=C(N2)C3=CC=NC=C3)C4=CC(=C(C=C4)Cl)O
How it was run: as §1

[6] = compound: C1=CC=C2C(=C1)C3=NNC4=CC=CC(=C43)C2=O
How it was run: as §1

[7] = compound: C1CCN(C1)C(=O)NC2=CC=CC(=C2)NC3=NC=C(C(=N3)NCCC4=CN=CN4)Br
How it was run: as §1

[8] = compound: C1CN(CCC1(CC2=CC=C(C=C2)Cl)N)C3=NC=NC4=C3C=CN4
How it was run: as §1

IRAK-1-4 Inhibitor I = compound: C1COCCN1CCN2C3=CC=CC=C3N=C2NC(=O)C4=CC(=CC=C4)[N+](=O)[O-] [IRAK-1-4 Inhibitor I]
How it was run: as §1

Measured: log2 fold change

TSR2 (UniProt Q969E8)
inactive: erlotinib 0.016 | [1] 0.001 | [2] -0.031 | [3] 0.023 | [4] 0.068 | [5] -0.011 | [6] -0.009 | [7] 0 | [8] 0.055 | IRAK-1-4 Inhibitor I -0.03

TRIM38 (UniProt O00635)
inactive: erlotinib 0 | [1] 0.071 | [2] 0.004 | [3] 0.004 | [4] -0.015 | [5] 0.008 | [6] 0.018 | [7] 0.053 | [8] -0.09 | IRAK-1-4 Inhibitor I -0.003

TRIP12 isoform 2 (UniProt Q14669)
inactive: erlotinib 0.034 | [1] 0.013 | [2] -0.014 | [3] 0.004 | [4] 0.024 | [5] -0.027 | [6] -0.02 | [7] 0.019 | [8] -0.021 | IRAK-1-4 Inhibitor I -0.032

TSR3 (UniProt Q9UJK0)
inactive: erlotinib 0.032 | [1] -0.064 | [2] -0.029 | [3] 0.005 | [4] -0.036 | [5] 0.041 | [6] -0.019 | [7] 0.016 | [8] 0.004 | IRAK-1-4 Inhibitor I 0.015

TST (UniProt Q16762)
inactive: erlotinib -0.045 | [1] -0.046 | [2] 0.063 | [3] 0.152 | [4] 0.093 | [5] -0.017 | [6] -0.021 | [7] 0.002 | [8] -0.051 | IRAK-1-4 Inhibitor I -0.044

TRMT12 (UniProt Q53H54)
inactive: erlotinib 0.065 | [1] 0.01 | [2] 0.018 | [3] 0.058 | [4] -0.044 | [5] 0.106 | [6] -0.047 | [7] -0.064 | [8] 0.07 | IRAK-1-4 Inhibitor I -0.03

TRAPPC1 (UniProt Q9Y5R8)
inactive: erlotinib 0.017 | [1] 0.036 | [2] 0.055 | [3] 0.069 | [4] -0.104 | [5] -0.028 | [6] 0.011 | [7] 0.005 | [8] -0.01 | IRAK-1-4 Inhibitor I 0.01

TRIM65 (UniProt Q6PJ69)
inactive: erlotinib 0.047 | [1] -0.072 | [2] -0.008 | [3] 0.021 | [4] -0.005 | [5] -0.044 | [6] -0.054 | [7] 0.026 | [8] 0.007 | IRAK-1-4 Inhibitor I -0.025

TRAF4 (UniProt Q9BUZ4)
inactive: erlotinib -0.042 | [1] 0.153 | [2] -0.049 | [3] -0.079 | [4] -0.084 | [5] 0 | [6] 0.068 | [7] 0.196 | [8] -0.245 | IRAK-1-4 Inhibitor I -0.029

TRMT11 (UniProt Q7Z4G4)
inactive: erlotinib -0.02 | [1] 0.13 | [2] 0.005 | [3] 0.045 | [4] 0.02 | [5] -0.015 | [6] 0.059 | [7] 0.014 | [8] 0.014 | IRAK-1-4 Inhibitor I -0.019

TTK (UniProt P33981)
inactive: erlotinib -0.032 | [1] -0.1 | [2] 0.09 | [3] -0.034 | [4] 0.004 | [5] 0.039 | [6] 0.258 | [7] 0.054 | [8] -0.039 | IRAK-1-4 Inhibitor I -0.032

TRIP4 (UniProt Q15650)
inactive: erlotinib -0.009 | [1] 0.027 | [2] 0.014 | [3] 0.043 | [4] -0.039 | [5] 0.051 | [6] -0.092 | [7] -0.008 | [8] -0.005 | IRAK-1-4 Inhibitor I -0.002

TRAF3 (UniProt Q13114)
inactive: erlotinib -0.004 | [1] 0.028 | [2] 0.171 | [3] 0.056 | [4] -0.1 | [5] -0.023 | [6] 0.032 | [7] -0.118 | [8] 0.029 | IRAK-1-4 Inhibitor I 0.082

TRRAP (UniProt Q9Y4A5)
inactive: erlotinib 0 | [1] -0.032 | [2] -0.013 | [3] 0.022 | [4] -0.012 | [5] 0.008 | [6] -0.052 | [7] -0.02 | [8] -0.004 | IRAK-1-4 Inhibitor I 0.017

TRMT112 (UniProt Q9UI30)
inactive: erlotinib 0.003 | [1] 0.004 | [2] 0.008 | [3] -0.002 | [4] 0.019 | [5] -0.059 | [6] -0.024 | [7] -0.044 | [8] 0.059 | IRAK-1-4 Inhibitor I -0.041

TRAPPC2 isoform 3 (UniProt P0DI81)
inactive: erlotinib 0.094 | [1] 0.063 | [2] 0.066 | [3] 0.042 | [4] 0 | [5] 0.022 | [6] -0.107 | [7] -0.026 | [8] -0.025 | IRAK-1-4 Inhibitor I -0.022

TSSC4 (UniProt Q9Y5U2)
inactive: erlotinib 0.018 | [1] -0.115 | [2] 0.007 | [3] 0.097 | [4] 0.036 | [5] -0.015 | [6] 0 | [7] 0.045 | [8] -0.013 | IRAK-1-4 Inhibitor I -0.028

TRIM32 (UniProt Q13049)
inactive: erlotinib 0.044 | [1] -0.022 | [2] 0.014 | [3] 0.122 | [4] 0.032 | [5] 0.025 | [6] 0 | [7] 0.047 | [8] 0.082 | IRAK-1-4 Inhibitor I -0.041

TRIP6 (UniProt Q15654)
inactive: erlotinib -0.017 | [1] -0.02 | [2] 0.019 | [3] 0.002 | [4] 0.028 | [5] 0.056 | [6] 0.002 | [7] -0.027 | [8] 0.012 | IRAK-1-4 Inhibitor I 0.023

TRMT61B (UniProt Q9BVS5)
inactive: erlotinib 0.03 | [1] -0.02 | [2] 0.025 | [3] 0.016 | [4] -0.015 | [5] -0.014 | [6] -0.003 | [7] 0.067 | [8] 0.025 | IRAK-1-4 Inhibitor I 0.019

TRAF6 (UniProt Q9Y4K3)
inactive: erlotinib -0.019 | [1] -0.068 | [2] 0.016 | [3] 0.033 | [4] -0.014 | [5] -0.021 | [6] -0.03 | [7] -0.017 | [8] -0.005 | IRAK-1-4 Inhibitor I -0.013

TSN (UniProt Q15631)
inactive: erlotinib 0.017 | [1] -0.037 | [2] 0.013 | [3] -0.007 | [4] -0.005 | [5] -0.004 | [6] -0.024 | [7] 0.022 | [8] 0.023 | IRAK-1-4 Inhibitor I 0.014

TTI1 (UniProt O43156)
inactive: erlotinib -0.017 | [1] 0.033 | [2] -0.049 | [3] 0.003 | [4] -0.012 | [5] -0.02 | [6] -0.003 | [7] -0.032 | [8] -0.037 | IRAK-1-4 Inhibitor I 0.015

TRAPPC10 (UniProt P48553)
inactive: erlotinib 0.066 | [1] 0.031 | [2] 0.027 | [3] 0.045 | [4] 0.018 | [5] 0.004 | [6] -0.058 | [7] 0.057 | [8] 0.005 | IRAK-1-4 Inhibitor I 0.013

TRMT10C (UniProt Q7L0Y3)
inactive: erlotinib 0.008 | [1] 0.008 | [2] 0.046 | [3] -0.002 | [4] -0.005 | [5] 0.021 | [6] -0.012 | [7] -0.027 | [8] 0.032 | IRAK-1-4 Inhibitor I -0.023

TRAPPC11 (UniProt Q7Z392)
inactive: erlotinib 0.034 | [1] -0.012 | [2] 0.017 | [3] 0.03 | [4] -0.031 | [5] -0.021 | [6] -0.017 | [7] -0.05 | [8] -0.039 | IRAK-1-4 Inhibitor I 0.025

TTI2 (UniProt Q6NXR4)
inactive: erlotinib -0.003 | [1] 0.037 | [2] 0.023 | [3] 0.047 | [4] 0.013 | [5] 0.012 | [6] -0.015 | [7] -0.028 | [8] 0.007 | IRAK-1-4 Inhibitor I 0.014

Reprinted at random: two records from the list
TRMT10C (UniProt Q7L0Y3)
inactive: erlotinib 0.008 | [1] 0.008 | [2] 0.046 | [3] -0.002 | [4] -0.005 | [5] 0.021 | [6] -0.012 | [7] -0.027 | [8] 0.032 | IRAK-1-4 Inhibitor I -0.023

TRAPPC10 (UniProt P48553)
inactive: erlotinib 0.066 | [1] 0.031 | [2] 0.027 | [3] 0.045 | [4] 0.018 | [5] 0.004 | [6] -0.058 | [7] 0.057 | [8] 0.005 | IRAK-1-4 Inhibitor I 0.013

(next part)

TRIM28 (UniProt Q13263)
inactive: erlotinib -0.019 | [1] 0.009 | [2] -0.001 | [3] -0.008 | [4] -0.003 | [5] -0.001 | [6] 0.005 | [7] 0.006 | [8] 0.002 | IRAK-1-4 Inhibitor I -0.003

TTC7B isoform 2 (UniProt Q86TV6)
inactive: erlotinib 0.1 | [1] 0.017 | [2] -0.105 | [3] 0.055 | [4] -0.022 | [5] -0.005 | [6] 0.021 | [7] 0.014 | [8] 0.025 | IRAK-1-4 Inhibitor I 0.042
